Data published in PubChem BioAssay AID540276 (National Center for Advancing Translational Sciences (NCATS), 2011).
Among all 300,000 compounds or so, about 5,400 (1.8%) were called active. This list was built around the results that the source calls inconclusive (neither active nor inactive); the mix of calls is not that of the screen. Calls follow the shape of the full dose curve; tested in HEK293 cells. A potency beside an inconclusive call is a rough fit, not a confirmed value.

Test: qHTS for inhibitors of binding or entry into cells for Marburg Virus
Settings: Marburg virus pseudotyped entry inhibition, cell reporter; series mostly up to 37.8 µM
Potency is read from the fitted curve at half-maximal effect.

Row | SMILES | Potency
1 | N#C/C(=C(/O)Cc1ccccc1)P(=O)(c1ccccc1)c1ccccc1 | inactive
2 | COCCCNC(=O)Cn1cnc2sc(C)c(S(=O)(=O)N3CC(C)CC(C)C3)c2c1=O (centres undefined) | inconclusive: 5.01 µM [inhibitor, partial curve, poor fit]
3 | O=S(=O)(Oc1ccc(Cl)cc1)c1cccc2cccnc12 | inconclusive: 0.251 µM [inhibitor, full curve, poor fit]
4 | O=C(OCC(=O)N1CCc2ccccc21)c1cccnc1 | inconclusive: 5.8 µM [inhibitor, partial curve, poor fit]
5 | CC(=O)Nc1ccc(S(=O)(=O)NC(CC(=O)N2CCC3(CC2)OCCO3)C(C)C)cc1 (centres undefined) | inconclusive: 0.112 µM [inhibitor, full curve, poor fit]
6 | CCOc1ccccc1N1CCN(C(=O)CCCN2C(=O)c3cccc4cccc(c34)C2=O)CC1 | inconclusive: 35.5 µM [inhibitor, partial curve, poor fit]
7 | CC(=O)Nc1sc(-c2ccccc2)nc1-c1ccccc1 | inactive
8 | COCCN1C=C(C(=O)OC)C(c2ccccc2Cl)C(C(=O)OC)=C1 | inconclusive: 35.5 µM [inhibitor, single point]
9 | COc1ccc(OC)c(C(=O)c2ccc(C(=O)Nc3cccc4ccccc34)cc2)c1 | inconclusive: 2.91 µM [inhibitor, full curve, poor fit]
10 | O=c1c2c(nc3cc(-c4cccc(Cl)c4)[nH]n13)CCC2 | inconclusive: 0.259 µM [activator, partial curve, poor fit]
11 | C/C=C/c1ccc(OCC(O)CN2CCCCCCC2)c(OC)c1 (centres undefined) | inconclusive: 22.4 µM [inhibitor, single point]
12 | O=C(Nc1cccc(-c2cn3cccnc3n2)c1)c1cccs1 | inconclusive: 6.31 µM [activator, single point]
13 | CC(C)c1ccc(NC(=O)N(CCc2nc3ccccc3[nH]2)C2CCCC2)cc1 | inactive
14 | COc1c2ccoc2nc2c(OC)c(OC[C@H](O)C(C)(C)O)ccc12 | inconclusive: 12.6 µM [activator, single point]
15 | CCCCNC(=O)c1ccc2c(c1)S(=O)(=O)c1ccccc1C2=O | inconclusive: 0.562 µM [inhibitor, full curve, poor fit]
16 | CN(Cc1ccccc1)c1ncnc2c1cnn2-c1ccccc1 | inactive
17 | COc1ccc(-n2c(SC3CCOC3=O)nc3ccccc32)cc1 (centres undefined) | inconclusive: 0.316 µM [inhibitor, full curve, poor fit]
18 | CC(=O)Nc1cccc(OCC(=O)Nc2ccccc2)c1 | inactive
19 | Cc1cc(NC(=O)c2ccc(NC(=O)CCS(=O)(=O)c3cccs3)cc2)ccc1Br | inconclusive: 3.98 µM [activator, partial curve, poor fit]
20 | CCCCCCN1C2=NCCN2c2ccccc21 | inconclusive: 16.4 µM [inhibitor, partial curve, poor fit]
21 | CC(=O)C1=C(C)NC(SCC(=O)c2ccc(F)cc2)=C(C#N)C1CC(C)C (centres undefined) | inactive
22 | COC(=O)c1c(NC(=O)COC(=O)c2ccc(O)cc2)sc2c1CCCCC2 | inactive
23 | COc1ccc(-c2[nH]ncc2CN(C)Cc2cccnc2)c(F)c1 | inactive

Row | SMILES | Potency
24 | CCCCCCCCn1c(=O)c(C(=O)OCC)c(O)c2ccccc21 | inconclusive: 1.78 µM [inhibitor, single point]
25 | O=C(NCc1ccco1)C1CCN(C(=O)c2cc3sccc3n2Cc2ccc(F)cc2)CC1 | inactive
26 | CCN1C(=O)/C(=c2\sc3nc(=O)c(Cc4ccccc4)nn3c2=O)c2ccccc21 | inactive
27 | COC(=O)Nc1ccc(S(=O)(=O)Nc2cnc3ccccc3n2)cc1 | inconclusive: 31.6 µM [activator, single point]
28 | CCOC(=O)c1c(C)n(C)c2c1cc(OC(C)=O)c1ccccc12 | inconclusive: 1 µM [inhibitor, full curve]
29 | COc1cc(/C=C2/SC(=S)N(c3ccccc3)C2=O)ccc1Oc1nc(N2CCOCC2)nc(N2CCOCC2)n1 | inactive
30 | Cn1c(SCCOc2cccc(Cl)c2)nnc1-c1ccncc1 | inconclusive: 15.8 µM [activator, single point]
31 | O=C(NCCCN1CCN(c2ccccc2F)CC1)c1ccc2nc(N3CCCCC3)sc2c1 | inconclusive: 0.631 µM [inhibitor, single point]
32 | CN(CC(=O)Nc1cccc(F)c1)C(=O)c1ccc2c(c1)CC(c1ccccc1)OC2=O (centres undefined) | inconclusive: 6.31 µM [inhibitor, partial curve]
33 | CCN(CC)C(=O)c1cc2c(=O)c3cc(F)ccc3oc2nc1C | inconclusive: 35.5 µM [activator, single point]
34 | OCCNc1c2ccccc2nc2c(F)c(F)c(F)c(F)c12 | inconclusive: 8.91 µM [inhibitor, partial curve, poor fit]
35 | COCCN(C(=O)C1CC1)c1nnc(-c2ccc(C)cc2)s1 | inactive
36 | O=C(Nc1ccc(C(F)(F)F)cc1)C(Cc1ccccc1)n1cccc1 (centres undefined) | inconclusive: 10 µM [inhibitor, partial curve, poor fit]
37 | O=C(O)c1cc(-c2ccc(Cl)s2)nc2ccccc12 | active: 11.2 µM
38 | CC(C)CNC(=S)NC(=O)c1ccc(F)cc1 | inconclusive: 7.08 µM [activator, full curve, poor fit]
39 | CCSc1nnnn1-c1ccccc1 | inactive
40 | COc1cccc(NC(=S)N2CCCC2)c1 | inconclusive: 0.224 µM [activator, full curve, poor fit]
41 | Cc1cc(C)c(S(=O)(=O)Nc2ccc3[nH]c(=O)[nH]c3c2)c(C)c1 | inconclusive: 35.5 µM [inhibitor, single point]
42 | CCc1cccc(CC)c1NC(=O)COC(=O)c1ccccc1-c1nc2ccccc2s1 | inconclusive: 35.5 µM [inhibitor, partial curve, poor fit]
43 | CCCCN(C(=O)c1oc2ccc(OCC)cc2c1C)c1c(N)n(CCCC)c(=O)[nH]c1=O | inconclusive: 6.31 µM [inhibitor, single point]
44 | O=C(O)CCn1cc(C=C2C(=O)NC(=O)NC2=O)c(-c2ccc(Br)cc2)n1 | inconclusive: 11.2 µM [activator, single point]
45 | COc1ccccc1CC(=O)N1CCN(c2cccc(Cl)c2)CC1 | inconclusive: 2.51 µM [inhibitor, partial curve, poor fit]
46 | COc1cccc(NC(=O)CN(C)C(=O)CN2C(=O)NC3(CCCC3)C2=O)c1 | inconclusive: 17.8 µM [inhibitor, single point]

3 entries picked at random from the list so far, as already listed:
Row | SMILES | Potency
24 | CCCCCCCCn1c(=O)c(C(=O)OCC)c(O)c2ccccc21 | inconclusive: 1.78 µM [inhibitor, single point]
18 | CC(=O)Nc1cccc(OCC(=O)Nc2ccccc2)c1 | inactive
38 | CC(C)CNC(=S)NC(=O)c1ccc(F)cc1 | inconclusive: 7.08 µM [activator, full curve, poor fit]

(continued)

Row | SMILES | Potency
47 | COc1ccccc1OC(C)C(=O)N1CCC(Cc2ccccc2)CC1 (centres undefined) | inactive
48 | O=C(CN1C(=O)NC2(CCCC2)C1=O)OCc1ccc(Cl)cc1Cl | inactive
49 | CCOc1cc(-c2nc(-c3ccncc3)no2)cc(OCC)c1OCC | inactive
50 | O=C(CSc1nc2ccccc2s1)Nc1ccc(Cl)c(C(=O)O)c1 | inconclusive: 14.1 µM [activator, single point]
51 | Cc1nc2ccccc2c(=O)n1-c1ccc(F)cc1 | inactive
52 | Cc1ccc(N2C(=O)NC(NC(=O)C3CC3)(C(F)(F)F)C2=O)cc1 (centres undefined) | inconclusive: 8.91 µM [inhibitor, partial curve, poor fit]
53 | O=C(CN1CC=C(c2ccccc2)CC1)Nc1c(Cl)cccc1Cl | inconclusive: 1.58 µM [inhibitor, partial curve, poor fit]
54 | C#CCOc1nc(OCC#C)nc(OCC#C)n1 | inconclusive: 35.5 µM [activator, single point]
55 | Cc1ccc(/C=C/C(=O)c2ccc(N3CCOCC3)cc2)s1 | inconclusive: 6.31 µM [inhibitor, partial curve, poor fit]
56 | C/C=C(\C)CN1CCC(n2nccc2NC(=O)c2ccc3c(c2)OCO3)CC1 | inactive
57 | COc1cccc(OC)c1C(=O)NC(=S)Nc1ccc(S(=O)(=O)Nc2nccs2)cc1 | inactive
58 | CCOC(=O)CSc1nnc([C@@H](NC(=O)OC(C)(C)C)C(C)C)o1 | inconclusive: 1 µM [inhibitor, single point]
59 | CNC(=S)N1N=C(c2ccc(C)cc2)CC1c1ccc(OC)c(OC)c1 (centres undefined) | inconclusive: 2.82 µM [inhibitor, partial curve, poor fit]
60 | COc1ccc(C(CNC(=O)COc2ccc(Cl)cc2C)N2CCCCC2)cc1 (centres undefined) | inactive
61 | C/C(=N\NC(=O)C1CCCC1)c1ccc(Cl)cc1Cl | inactive
62 | CCC(C(=O)NC1CCCC1)N(C(=O)Cn1nnc(-c2ccc(C)o2)n1)C(C)(C)C (centres undefined) | inconclusive: 32.6 µM [inhibitor, single point]
63 | Cc1csc2c(N3CCN(S(=O)(=O)c4ccc(Cl)cc4)CC3)ncnc12 | inconclusive: 3.55 µM [activator, partial curve, poor fit]
64 | C/C(=N\NC(=O)c1ccccc1)c1ccccc1F | inconclusive: 35.5 µM [activator, single point]
65 | CCOc1ccccc1NC(=O)N1CCC2(CC1)Oc1ccccc1C(=O)N2Cc1ccccc1F | inconclusive: 22.4 µM [inhibitor, single point]
66 | O=C(NC1CCCC1)C(c1ccncc1)N(Cc1ccccc1)C(=O)c1ccc(-c2ccccc2)[nH]1 (centres undefined) | inconclusive: 35.5 µM [inhibitor, single point]
67 | Cc1cccc(C(=O)OCC(=O)c2ccc3c(c2)OCO3)c1O | inactive
68 | NC(=O)c1ccccc1OCCOc1ccc(Br)cc1 | inconclusive: 35.5 µM [inhibitor, single point]
69 | O=C(Nc1ccc(Cc2ccncc2)cc1)c1ccc(S(=O)(=O)N2CCCC2)cc1 | inconclusive: 12.6 µM [inhibitor, partial curve, poor fit]

Of the compounds above, these have a tert-butyl group:
Row | SMILES | Potency
58 | CCOC(=O)CSc1nnc([C@@H](NC(=O)OC(C)(C)C)C(C)C)o1 | inconclusive: 1 µM [inhibitor, single point]
62 | CCC(C(=O)NC1CCCC1)N(C(=O)Cn1nnc(-c2ccc(C)o2)n1)C(C)(C)C (centres undefined) | inconclusive: 32.6 µM [inhibitor, single point]
